The other results are listed elsewhere or left out. The calls rarely recur for the same compound in another form.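 Kinases were expressed as nanoluciferase fusions in K562 cells and luminescence was read every 4 h between 2 and 18 h as percent of control, DMSO set to 100% and a positive control to 0%. A time point counts as decreased when the signal drops significantly (2 sigma). The hit call is the authors' own, does not follow from the count of time points alone, and its rule is not shown.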
How the values were obtained:
Experiment in all cases: kinase-Nluc reporter destabilization hit call (1 = scored as downregulated) (binary); higher = compound decreases kinase abundance
Conditions in all cases: K562; 2-18 h
[1] = target: ABL1 (UniProt P00519)
[2] = target: AKT1 (UniProt P31749)
[3] = target: ALK (UniProt Q9UM73)
[4] = target: ARAF (UniProt P10398)
[5] = target: AURKA (UniProt O14965)
[6] = target: AURKB (UniProt Q96GD4)
[7] = target: AURKC (UniProt Q9UQB9)
[8] = target: BLK (UniProt P51451)
[9] = target: BMX (UniProt P51813)
[10] = target: BRAF (UniProt P15056)
[11] = system: BRAF_V600E
[12] = target: BTK (UniProt Q06187)
[13] = target: CAMK2A (UniProt Q9UQM7)
[14] = target: CAMK2G (UniProt Q13555)
[15] = target: CDK10 (UniProt Q15131)
[16] = target: CDK2 (UniProt P24941)
[17] = target: CDK3 (UniProt Q00526)
[18] = target: CDK4 (UniProt P11802)
[19] = target: CDK5 (UniProt Q00535)
[20] = target: CDK6 (UniProt Q00534)

Protein sequences, listed by entry. Tags and fused reporters are not part of them. Lines headed by an entry give the natural chain unless they say otherwise; changes in a name come on top.
UniProt P00519, whole entry: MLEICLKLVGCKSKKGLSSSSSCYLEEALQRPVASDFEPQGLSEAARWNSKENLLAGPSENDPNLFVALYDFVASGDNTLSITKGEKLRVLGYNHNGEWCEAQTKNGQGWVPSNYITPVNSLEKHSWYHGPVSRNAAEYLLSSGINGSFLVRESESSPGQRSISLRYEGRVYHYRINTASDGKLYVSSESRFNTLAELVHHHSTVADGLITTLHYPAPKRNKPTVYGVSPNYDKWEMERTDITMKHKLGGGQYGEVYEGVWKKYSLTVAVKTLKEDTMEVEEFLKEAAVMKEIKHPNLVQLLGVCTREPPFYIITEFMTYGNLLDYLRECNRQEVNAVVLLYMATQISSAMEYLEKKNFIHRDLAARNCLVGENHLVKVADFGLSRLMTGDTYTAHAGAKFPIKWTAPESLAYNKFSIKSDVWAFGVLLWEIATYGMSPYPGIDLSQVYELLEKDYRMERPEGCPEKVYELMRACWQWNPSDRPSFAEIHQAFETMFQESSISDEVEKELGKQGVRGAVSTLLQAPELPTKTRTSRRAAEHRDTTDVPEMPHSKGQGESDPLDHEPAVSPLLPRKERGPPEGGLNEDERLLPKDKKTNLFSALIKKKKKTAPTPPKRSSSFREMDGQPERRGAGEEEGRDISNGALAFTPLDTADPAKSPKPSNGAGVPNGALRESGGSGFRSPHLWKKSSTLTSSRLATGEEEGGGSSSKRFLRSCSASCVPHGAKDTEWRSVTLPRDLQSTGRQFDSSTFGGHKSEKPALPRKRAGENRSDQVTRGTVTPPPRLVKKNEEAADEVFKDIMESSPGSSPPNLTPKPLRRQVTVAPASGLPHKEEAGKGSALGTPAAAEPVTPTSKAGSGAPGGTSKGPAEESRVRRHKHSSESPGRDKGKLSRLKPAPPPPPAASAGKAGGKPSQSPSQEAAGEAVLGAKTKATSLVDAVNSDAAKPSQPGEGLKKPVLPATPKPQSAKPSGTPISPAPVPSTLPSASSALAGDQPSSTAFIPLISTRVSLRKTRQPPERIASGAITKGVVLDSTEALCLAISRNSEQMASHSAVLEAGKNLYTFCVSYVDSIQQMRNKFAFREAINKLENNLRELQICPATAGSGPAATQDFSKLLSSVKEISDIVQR
UniProt P31749: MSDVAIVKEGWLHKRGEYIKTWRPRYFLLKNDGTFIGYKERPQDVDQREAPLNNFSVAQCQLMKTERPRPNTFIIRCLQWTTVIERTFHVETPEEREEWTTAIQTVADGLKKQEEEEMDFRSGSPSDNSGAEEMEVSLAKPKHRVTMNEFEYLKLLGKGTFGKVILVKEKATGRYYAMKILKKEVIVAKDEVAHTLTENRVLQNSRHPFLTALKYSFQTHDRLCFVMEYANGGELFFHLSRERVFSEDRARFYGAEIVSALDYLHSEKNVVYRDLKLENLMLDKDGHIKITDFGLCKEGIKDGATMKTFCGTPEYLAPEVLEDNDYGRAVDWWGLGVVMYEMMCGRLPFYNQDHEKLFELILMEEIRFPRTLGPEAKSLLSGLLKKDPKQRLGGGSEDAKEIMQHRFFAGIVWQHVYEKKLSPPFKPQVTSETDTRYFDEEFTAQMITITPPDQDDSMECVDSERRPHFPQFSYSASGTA
UniProt Q9UM73: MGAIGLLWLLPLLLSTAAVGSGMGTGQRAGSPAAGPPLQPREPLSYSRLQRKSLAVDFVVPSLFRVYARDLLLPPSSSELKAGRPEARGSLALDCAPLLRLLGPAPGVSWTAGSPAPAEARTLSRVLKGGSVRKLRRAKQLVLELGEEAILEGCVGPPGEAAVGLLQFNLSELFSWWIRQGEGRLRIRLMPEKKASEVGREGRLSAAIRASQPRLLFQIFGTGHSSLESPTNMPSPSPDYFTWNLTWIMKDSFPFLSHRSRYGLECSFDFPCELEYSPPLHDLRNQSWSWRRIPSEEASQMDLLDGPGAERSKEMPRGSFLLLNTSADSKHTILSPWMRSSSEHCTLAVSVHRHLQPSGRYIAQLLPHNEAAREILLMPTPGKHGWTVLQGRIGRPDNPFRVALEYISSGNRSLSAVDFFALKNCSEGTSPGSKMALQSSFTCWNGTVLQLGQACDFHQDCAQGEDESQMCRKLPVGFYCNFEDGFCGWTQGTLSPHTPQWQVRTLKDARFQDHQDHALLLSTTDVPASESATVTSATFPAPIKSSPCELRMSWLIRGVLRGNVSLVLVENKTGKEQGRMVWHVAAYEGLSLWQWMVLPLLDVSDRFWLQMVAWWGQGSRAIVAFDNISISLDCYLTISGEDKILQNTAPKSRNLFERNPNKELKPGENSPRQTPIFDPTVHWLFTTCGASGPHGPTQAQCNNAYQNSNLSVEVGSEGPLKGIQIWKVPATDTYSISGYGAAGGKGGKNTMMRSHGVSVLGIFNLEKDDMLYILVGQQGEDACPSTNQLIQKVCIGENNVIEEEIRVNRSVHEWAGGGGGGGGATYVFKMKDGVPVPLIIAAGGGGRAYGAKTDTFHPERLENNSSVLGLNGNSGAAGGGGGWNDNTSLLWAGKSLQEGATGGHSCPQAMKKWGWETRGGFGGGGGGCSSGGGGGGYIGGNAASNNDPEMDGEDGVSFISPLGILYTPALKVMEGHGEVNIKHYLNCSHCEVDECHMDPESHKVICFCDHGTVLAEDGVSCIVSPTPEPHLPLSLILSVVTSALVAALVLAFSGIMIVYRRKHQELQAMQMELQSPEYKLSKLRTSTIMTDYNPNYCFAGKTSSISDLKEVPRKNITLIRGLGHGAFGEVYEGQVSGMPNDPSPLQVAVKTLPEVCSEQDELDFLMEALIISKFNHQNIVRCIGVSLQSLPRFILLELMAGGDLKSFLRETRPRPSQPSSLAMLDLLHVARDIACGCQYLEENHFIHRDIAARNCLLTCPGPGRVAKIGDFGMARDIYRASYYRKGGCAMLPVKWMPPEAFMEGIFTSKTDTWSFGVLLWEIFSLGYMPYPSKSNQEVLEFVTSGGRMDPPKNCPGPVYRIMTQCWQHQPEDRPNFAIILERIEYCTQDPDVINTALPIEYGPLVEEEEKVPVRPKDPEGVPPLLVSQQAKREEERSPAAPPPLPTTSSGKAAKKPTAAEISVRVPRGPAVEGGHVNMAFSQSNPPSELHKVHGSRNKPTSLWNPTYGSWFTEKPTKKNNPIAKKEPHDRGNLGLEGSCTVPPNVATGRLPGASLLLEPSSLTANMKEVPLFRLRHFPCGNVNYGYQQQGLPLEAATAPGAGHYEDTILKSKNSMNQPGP
UniProt Q96GD4, whole entry: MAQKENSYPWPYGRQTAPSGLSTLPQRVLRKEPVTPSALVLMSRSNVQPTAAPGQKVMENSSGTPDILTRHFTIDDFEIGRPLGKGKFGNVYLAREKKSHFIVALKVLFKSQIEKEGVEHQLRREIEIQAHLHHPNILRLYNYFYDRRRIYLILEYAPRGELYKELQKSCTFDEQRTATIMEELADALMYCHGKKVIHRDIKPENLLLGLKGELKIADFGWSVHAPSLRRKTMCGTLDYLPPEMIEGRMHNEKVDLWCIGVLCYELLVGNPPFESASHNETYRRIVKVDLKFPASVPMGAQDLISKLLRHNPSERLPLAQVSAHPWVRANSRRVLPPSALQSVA
UniProt P51813: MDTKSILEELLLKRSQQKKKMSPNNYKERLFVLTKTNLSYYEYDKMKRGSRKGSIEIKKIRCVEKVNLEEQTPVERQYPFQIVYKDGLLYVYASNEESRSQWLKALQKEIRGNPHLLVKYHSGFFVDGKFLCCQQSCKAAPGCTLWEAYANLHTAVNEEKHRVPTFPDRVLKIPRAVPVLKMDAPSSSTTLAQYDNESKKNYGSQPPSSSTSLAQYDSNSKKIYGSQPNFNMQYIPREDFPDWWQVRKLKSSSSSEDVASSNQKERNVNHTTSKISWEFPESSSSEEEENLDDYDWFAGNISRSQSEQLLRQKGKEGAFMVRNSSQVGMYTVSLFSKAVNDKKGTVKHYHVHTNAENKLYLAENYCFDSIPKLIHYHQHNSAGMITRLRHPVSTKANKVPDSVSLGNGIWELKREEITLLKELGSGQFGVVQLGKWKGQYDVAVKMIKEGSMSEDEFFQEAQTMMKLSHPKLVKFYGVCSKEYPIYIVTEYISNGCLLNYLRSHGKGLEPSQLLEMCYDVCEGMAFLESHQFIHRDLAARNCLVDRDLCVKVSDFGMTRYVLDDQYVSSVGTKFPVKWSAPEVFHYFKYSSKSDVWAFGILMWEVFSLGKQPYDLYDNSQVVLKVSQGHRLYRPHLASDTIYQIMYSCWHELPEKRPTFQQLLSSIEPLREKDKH
UniProt P15056, whole entry, looked up: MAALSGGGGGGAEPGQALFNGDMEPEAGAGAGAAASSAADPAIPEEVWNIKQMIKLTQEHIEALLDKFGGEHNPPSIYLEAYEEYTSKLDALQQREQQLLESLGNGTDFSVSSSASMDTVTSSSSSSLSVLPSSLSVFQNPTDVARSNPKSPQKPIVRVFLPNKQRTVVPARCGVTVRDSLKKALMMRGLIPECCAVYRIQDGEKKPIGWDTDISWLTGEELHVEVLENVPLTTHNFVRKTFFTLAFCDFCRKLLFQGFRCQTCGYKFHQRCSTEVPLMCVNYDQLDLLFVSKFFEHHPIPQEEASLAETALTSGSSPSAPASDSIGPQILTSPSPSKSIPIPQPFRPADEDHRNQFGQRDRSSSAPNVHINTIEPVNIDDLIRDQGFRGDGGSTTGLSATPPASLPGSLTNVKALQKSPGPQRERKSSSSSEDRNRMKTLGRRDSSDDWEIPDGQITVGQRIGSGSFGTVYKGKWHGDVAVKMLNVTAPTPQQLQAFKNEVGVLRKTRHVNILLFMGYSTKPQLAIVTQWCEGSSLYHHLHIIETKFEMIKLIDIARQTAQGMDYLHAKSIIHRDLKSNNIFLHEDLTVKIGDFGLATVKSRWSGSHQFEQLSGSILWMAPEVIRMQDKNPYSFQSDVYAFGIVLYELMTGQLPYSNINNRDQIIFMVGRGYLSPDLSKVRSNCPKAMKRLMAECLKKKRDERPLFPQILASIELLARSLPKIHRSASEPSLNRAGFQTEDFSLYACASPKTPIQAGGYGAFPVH
UniProt Q13555: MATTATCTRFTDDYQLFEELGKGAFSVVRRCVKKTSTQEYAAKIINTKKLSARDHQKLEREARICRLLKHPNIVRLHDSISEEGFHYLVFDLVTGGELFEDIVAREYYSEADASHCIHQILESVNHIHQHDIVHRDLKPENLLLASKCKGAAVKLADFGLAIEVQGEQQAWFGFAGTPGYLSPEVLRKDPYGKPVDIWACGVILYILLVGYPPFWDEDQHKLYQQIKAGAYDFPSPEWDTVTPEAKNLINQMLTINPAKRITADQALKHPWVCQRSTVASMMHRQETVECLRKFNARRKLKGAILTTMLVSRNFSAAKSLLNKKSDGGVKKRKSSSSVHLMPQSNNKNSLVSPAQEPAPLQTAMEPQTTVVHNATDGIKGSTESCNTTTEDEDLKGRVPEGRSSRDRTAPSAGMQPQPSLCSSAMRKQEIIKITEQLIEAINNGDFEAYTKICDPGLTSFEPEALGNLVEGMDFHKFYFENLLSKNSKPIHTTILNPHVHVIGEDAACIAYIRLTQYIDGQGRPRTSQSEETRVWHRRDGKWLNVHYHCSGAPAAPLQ
UniProt Q15131: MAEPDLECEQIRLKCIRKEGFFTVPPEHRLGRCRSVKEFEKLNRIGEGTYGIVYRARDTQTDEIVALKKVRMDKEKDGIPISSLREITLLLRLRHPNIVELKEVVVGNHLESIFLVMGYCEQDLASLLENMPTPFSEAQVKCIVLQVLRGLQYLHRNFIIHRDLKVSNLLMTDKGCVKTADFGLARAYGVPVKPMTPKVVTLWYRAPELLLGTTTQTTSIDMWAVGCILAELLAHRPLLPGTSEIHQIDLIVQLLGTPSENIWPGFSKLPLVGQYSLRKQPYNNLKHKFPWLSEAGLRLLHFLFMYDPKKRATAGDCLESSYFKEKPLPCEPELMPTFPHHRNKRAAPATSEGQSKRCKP
UniProt P11802: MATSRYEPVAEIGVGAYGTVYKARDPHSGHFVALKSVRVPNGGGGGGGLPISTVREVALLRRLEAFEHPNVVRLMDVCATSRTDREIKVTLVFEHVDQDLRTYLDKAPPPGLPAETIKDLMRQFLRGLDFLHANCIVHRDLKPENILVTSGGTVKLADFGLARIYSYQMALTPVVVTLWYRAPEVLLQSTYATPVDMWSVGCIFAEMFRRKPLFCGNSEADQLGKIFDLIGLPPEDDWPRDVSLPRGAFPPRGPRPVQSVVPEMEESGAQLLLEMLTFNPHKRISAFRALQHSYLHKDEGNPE
UniProt Q00534, whole entry: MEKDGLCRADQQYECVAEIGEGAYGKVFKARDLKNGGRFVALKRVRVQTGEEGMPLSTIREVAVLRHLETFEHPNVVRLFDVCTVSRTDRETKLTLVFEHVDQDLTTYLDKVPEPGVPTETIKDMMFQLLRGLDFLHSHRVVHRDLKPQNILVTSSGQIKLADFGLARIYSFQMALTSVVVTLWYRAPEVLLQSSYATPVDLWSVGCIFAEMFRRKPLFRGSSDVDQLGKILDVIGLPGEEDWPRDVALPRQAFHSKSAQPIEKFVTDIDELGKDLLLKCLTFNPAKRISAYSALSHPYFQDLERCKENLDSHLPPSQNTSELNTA

Measured: kinase-Nluc reporter destabilization hit call

CC(=O)O[C@H]1[C@H]2[C@@H](OC(=O)Cc3ccccc3)[C@@H](C)C[C@]2(OC(C)=O)C(=O)/C(C)=C/[C@@H]2[C@H](CC[C@@]13CO3)C2(C)C [Euphorbiasteroid] (10 µM)
inactive: [1] 0 | [2] 0 | [3] 0 | [4] 0 | [5] 0 | [6] 0 | [7] 0 | [8] 0 | [9] 0 | [10] 0 | [11] 0 | [12] 0 | [13] 0 | [14] 0 | [15] 0 | [16] 0 | [17] 0 | [18] 0 | [19] 0 | [20] 0

CCCS(=O)(=O)Nc1ccc(F)c(-n2cc(-c3cncnc3)c3nc(N(C)C4CCN(CC)CC4)ccc32)c1F (2 µM)
inactive: [1] 0 | [2] 0 | [3] 0 | [4] 0 | [5] 0 | [6] 0 | [7] 0 | [8] 0 | [9] 0 | [10] 0 | [11] 0 | [12] 0 | [13] 0 | [14] 0 | [15] 0 | [16] 0 | [17] 0 | [18] 0 | [19] 0 | [20] 0

Cc1ccccc1-n1c(Cn2cnc3c(N)ncnc32)nc2cccc(C)c2c1=O (10 µM)
inactive: [1] 0 | [2] 0 | [3] 0 | [4] 0 | [5] 0 | [6] 0 | [7] 0 | [8] 0 | [9] 0 | [10] 0 | [11] 0 | [12] 0 | [13] 0 | [14] 0 | [15] 0 | [16] 0 | [17] 0 | [18] 0 | [19] 0 | [20] 0

O=c1[nH]c2ccccc2n1C1CCN(CCCC(c2ccc(F)cc2)c2ccc(F)cc2)CC1 [Pimozide] (2.5 µM)
inactive: [1] 0 | [2] 0 | [3] 0 | [4] 0 | [5] 0 | [6] 0 | [7] 0 | [8] 0 | [9] 0 | [10] 0 | [11] 0 | [12] 0 | [13] 0 | [14] 0 | [15] 0 | [16] 0 | [17] 0 | [18] 0 | [19] 0 | [20] 0

COc1ccc(/C=C/c2cc(OC)c(OC)c(OC)c2)cc1 (2.5 µM)
inactive: [1] 0 | [2] 0 | [3] 0 | [4] 0 | [5] 0 | [6] 0 | [7] 0 | [8] 0 | [9] 0 | [10] 0 | [11] 0 | [12] 0 | [13] 0 | [14] 0 | [15] 0 | [16] 0 | [17] 0 | [18] 0 | [19] 0 | [20] 0

Cc1[nH]ncc1-c1cc2nc([C@H]3CC4CCN3CC4)[nH]c(=O)c2s1 [(R)-Simurosertib] (10 µM)
inactive: [1] 0 | [2] 0 | [3] 0 | [4] 0 | [5] 0 | [6] 0 | [7] 0 | [8] 0 | [9] 0 | [10] 0 | [11] 0 | [12] 0 | [13] 0 | [14] 0 | [15] 0 | [16] 0 | [17] 0 | [18] 0 | [19] 0 | [20] 0

C[C@H]1CC[C@]2(NC1)O[C@H]1C[C@H]3[C@@H]4CC[C@H]5C[C@@H](O)CC[C@]5(C)[C@H]4CC[C@]3(C)[C@H]1[C@@H]2C [Tomatidine] (2 µM)
inactive: [1] 0 | [2] 0 | [3] 0 | [4] 0 | [5] 0 | [6] 0 | [7] 0 | [8] 0 | [9] 0 | [10] 0 | [11] 0 | [12] 0 | [13] 0 | [14] 0 | [15] 0 | [16] 0 | [17] 0 | [18] 0 | [19] 0 | [20] 0

C=CC(=O)Nc1ccc2[nH]c(=O)n(C3CCN(Cc4ccc(-c5nc6cc[nH]c(=O)c6cc5-c5ccccc5)cc4)CC3)c2c1 [Borussertib] (10 µM)
inactive: [1] 0 | [2] 0 | [3] 0 | [4] 0 | [5] 0 | [6] 0 | [7] 0 | [8] 0 | [9] 0 | [10] 0 | [11] 0 | [12] 0 | [13] 0 | [14] 0 | [15] 0 | [16] 0 | [17] 0 | [18] 0 | [19] 0 | [20] 0

O=C1C=CC[C@@H]2[C@H]3CCCN4CCC[C@@H](CN12)[C@@H]34 [Sophocarpine (monohydrate)] (2.5 µM)
inactive: [1] 0 | [2] 0 | [3] 0 | [4] 0 | [5] 0 | [6] 0 | [7] 0 | [8] 0 | [9] 0 | [10] 0 | [11] 0 | [12] 0 | [13] 0 | [14] 0 | [15] 0 | [16] 0 | [17] 0 | [18] 0 | [19] 0 | [20] 0

O=c1cc(O)c2ccccc2o1 [4-Hydroxycoumarin] (10 µM)
inactive: [1] 0 | [2] 0 | [3] 0 | [4] 0 | [5] 0 | [6] 0 | [7] 0 | [8] 0 | [9] 0 | [10] 0 | [11] 0 | [12] 0 | [13] 0 | [14] 0 | [15] 0 | [16] 0 | [17] 0 | [18] 0 | [19] 0 | [20] 0

O=Cc1cn(Cc2ccc(Cl)cc2)c2ccccc12 [Oncrasin-1] (10 µM)
inactive: [1] 0 | [2] 0 | [3] 0 | [4] 0 | [5] 0 | [6] 0 | [7] 0 | [8] 0 | [9] 0 | [10] 0 | [11] 0 | [12] 0 | [13] 0 | [14] 0 | [15] 0 | [16] 0 | [17] 0 | [18] 0 | [19] 0 | [20] 0

N#CC(C#N)=Cc1ccc(O)c(O)c1 [Tyrphostin 23] (10 µM)
inactive: [1] 0 | [2] 0 | [3] 0 | [4] 0 | [5] 0 | [6] 0 | [7] 0 | [8] 0 | [9] 0 | [10] 0 | [11] 0 | [12] 0 | [13] 0 | [14] 0 | [15] 0 | [16] 0 | [17] 0 | [18] 0 | [19] 0 | [20] 0

Quoted at random: two compounds from above
C=CC(=O)Nc1ccc2[nH]c(=O)n(C3CCN(Cc4ccc(-c5nc6cc[nH]c(=O)c6cc5-c5ccccc5)cc4)CC3)c2c1 [Borussertib] (10 µM)
inactive: [1] 0 | [2] 0 | [3] 0 | [4] 0 | [5] 0 | [6] 0 | [7] 0 | [8] 0 | [9] 0 | [10] 0 | [11] 0 | [12] 0 | [13] 0 | [14] 0 | [15] 0 | [16] 0 | [17] 0 | [18] 0 | [19] 0 | [20] 0

N#CC(C#N)=Cc1ccc(O)c(O)c1 [Tyrphostin 23] (10 µM)
inactive: [1] 0 | [2] 0 | [3] 0 | [4] 0 | [5] 0 | [6] 0 | [7] 0 | [8] 0 | [9] 0 | [10] 0 | [11] 0 | [12] 0 | [13] 0 | [14] 0 | [15] 0 | [16] 0 | [17] 0 | [18] 0 | [19] 0 | [20] 0

Remaining list, next part.

C/C(O)=C(\C#N)C(=O)Nc1cc(Br)ccc1Br (10 µM)
inactive: [1] 0 | [2] 0 | [3] 0 | [4] 0 | [5] 0 | [6] 0 | [7] 0 | [8] 0 | [9] 0 | [10] 0 | [11] 0 | [12] 0 | [13] 0 | [14] 0 | [15] 0 | [16] 0 | [17] 0 | [18] 0 | [19] 0 | [20] 0

O=c1[nH]c2ccccc2n1C1CCN(Cc2ccc(-c3[nH]c4cc5ncnc5cc4nc3-c3ccccc3)cc2)CC1 [AKT inhibitor VIII] (2.5 µM)
inactive: [1] 0 | [2] 0 | [3] 0 | [4] 0 | [5] 0 | [6] 0 | [7] 0 | [8] 0 | [9] 0 | [10] 0 | [11] 0 | [12] 0 | [13] 0 | [14] 0 | [15] 0 | [16] 0 | [17] 0 | [18] 0 | [19] 0 | [20] 0

O=[N+]([O-])/C=C/c1ccc2c(c1)OCO2 (2.5 µM)
inactive: [1] 0 | [2] 0 | [3] 0 | [4] 0 | [5] 0 | [6] 0 | [7] 0 | [8] 0 | [9] 0 | [10] 0 | [11] 0 | [12] 0 | [13] 0 | [14] 0 | [15] 0 | [16] 0 | [17] 0 | [18] 0 | [19] 0 | [20] 0

NCCc1cn(S(=O)(=O)c2c(Cl)nc3sccn23)c2ccccc12 (10 µM)
inactive: [1] 0 | [2] 0 | [3] 0 | [4] 0 | [5] 0 | [6] 0 | [7] 0 | [8] 0 | [9] 0 | [10] 0 | [11] 0 | [12] 0 | [13] 0 | [14] 0 | [15] 0 | [16] 0 | [17] 0 | [18] 0 | [19] 0 | [20] 0

C[C@@H]1CC[C@H]2[C@@H](C)C(=O)O[C@@H]3O[C@@]4(C)CC[C@@H]1[C@]32OO4 [Artemisinin] (10 µM)
inactive: [1] 0 | [2] 0 | [3] 0 | [4] 0 | [5] 0 | [6] 0 | [7] 0 | [8] 0 | [9] 0 | [10] 0 | [11] 0 | [12] 0 | [13] 0 | [14] 0 | [15] 0 | [16] 0 | [17] 0 | [18] 0 | [19] 0 | [20] 0

Reference: the supplement of paper PMC12823440, “Inhibitors supercharge kinase turnover through native proteolytic circuits” (Nature, 2025)
